Laboratory results reported in the supplement of paper PMC12889115.
The list shows a part of the results. These are raw signals, not scaled to a control.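 First-pass screen: polymyxin B was added at a level that permeabilizes the Salmonella outer membrane while sparing the inner membrane. DMSO wells, with and without polymyxin B, defined maximum growth. Because plates differed from one another, each plate's data were ranked separately and the compounds with the lowest OD600 were carried forward as hits.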

System: Salmonella enterica serovar Typhimurium SL1344
Experiment: bacterial growth OD600 after 18 h with compound and polymyxin B; higher = more bacterial growth (less inhibition)
Conditions: 50 µM, Mueller-Hinton broth

Row | SMILES | bacterial growth OD600 (polymyxin B 0.75 µg/mL) | bacterial growth OD600 (polymyxin B 1 µg/mL)
1 | CCC(=O)N[C@@H]1c2ccccc2C2(CCN(C(=O)c3cc(C)n(C)n3)CC2)[C@H]1OCc1cccnc1 | 0.863 | –
2 | CC(C)CN1CCC(C2CCN(C(=O)C3CCOCC3)C2)CC1 (centres undefined) | 0.81 | –
3 | COCc1c(C(=O)N(C)Cc2ccc(OC)c(OC)c2)cnn1-c1nccc(-c2ccco2)n1 | 0.812 | –
4 | COc1cccc(CC(C2CCN(C(=O)c3cc(C)ccc3C)CC2)N(C)C(=O)c2ccn(C)n2)c1 (centres undefined) | 0.843 | –
5 | CCCc1cc(CN(C)C(=O)CC2(c3ccccc3OC)CC(=O)N(CCCOC)C2=O)n[nH]1 (centres undefined) | 0.892 | –
6 | O=C(c1cnsn1)N1CCCC(N2CCN(Cc3ccc4c(c3)OCO4)CC2)C1 (centres undefined) | – | 0.936
7 | Cc1nc(CCNc2nncc(-c3ccc(F)cc3)n2)sc1C | 0.833 | –
8 | O=C(c1cn(CC2COc3ccccc3O2)nn1)N1CCC(Cc2ccccc2F)CC1 (centres undefined) | – | 0.582
9 | CO[C@H]1[C@H](NC(=O)c2ccncc2)c2ccccc2C12CCN(C(=O)c1cccc(C)c1C)CC2 | 0.846 | –
10 | CCOC(=O)C1(CCCc2ccccc2)CCN(C(=O)CCc2cnccn2)CC1 | – | 0.808
11 | CN(CC1CCOCC1)C(=O)c1cc(COc2cccc3cnccc23)on1 | – | 0.93
12 | Cc1oc(-c2ccccc2NC(=O)c2ccccc2)nc1CNC(=O)C1CC(=O)N(CC(C)C)C1 (centres undefined) | 0.693 | –
13 | COCCN(Cc1ccccn1)C(Cc1ccccc1)C1CCN(C2CCCC2)CC1 (centres undefined) | 0.816 | –
14 | O=S(=O)(c1ccccc1C(F)(F)F)N1CCC(CO)(Cc2ccccc2Cl)CC1 | – | -0.002
15 | CN(Cc1n[nH]c2c1CCCC2)C(=O)COc1ccc(N2CCN(c3ccccn3)CC2)nn1 | 0.757 | –
16 | COc1cccc(-n2cc(CN(C)C(=O)CCC3(Cc4ccc(OC)cc4F)CCC(=O)N3)cn2)c1 (centres undefined) | 0.821 | –
17 | COc1ncccc1C(=O)NCc1cccnc1Oc1ccc(F)cc1F | – | 0.973
18 | COc1ccc(-n2ncc(C(C)NCc3ccc(OC)cc3F)c2C)cc1 (centres undefined) | 0.965 | –
19 | COC(=O)c1cc(CNC(=O)C2(c3ccc(Cl)cc3)CCC2)cc(NC(=O)c2ccco2)c1 | 0.929 | –

A second format for some results above:
COc1cccc(-n2cc(CN(C)C(=O)CCC3(Cc4ccc(OC)cc4F)CCC(=O)N3)cn2)c1 (centres undefined)
  bacterial growth OD600 (polymyxin B 0.75 µg/mL): 0.821
COc1ncccc1C(=O)NCc1cccnc1Oc1ccc(F)cc1F
  bacterial growth OD600 (polymyxin B 1 µg/mL): 0.973
